Data reported in publication doi:10.1101/402123 (bioRxiv, 2018).
These are yes or no findings as the source states them, for the method shown. Some entries that bind do so weakly or less than the wild type. No end group written: not given here. fluorescein = N-terminal fluorescein label

Assays:
Experiment in all cases: fluorescence polarisation
[1] = molecular target: T1, BP230 10-162 S27D (human) (UniProt Q03001)
T1 sequence (chain, Oregon Green 488 on thiol groups): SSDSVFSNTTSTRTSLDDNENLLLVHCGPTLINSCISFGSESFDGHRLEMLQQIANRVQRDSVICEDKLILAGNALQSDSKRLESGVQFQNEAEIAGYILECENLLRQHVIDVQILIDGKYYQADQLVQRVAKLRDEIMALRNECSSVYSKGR

[2] = molecular target: T2, BP230 10-162 S46D (human) (UniProt Q03001)
T2 sequence (chain, Oregon Green 488 on thiol groups): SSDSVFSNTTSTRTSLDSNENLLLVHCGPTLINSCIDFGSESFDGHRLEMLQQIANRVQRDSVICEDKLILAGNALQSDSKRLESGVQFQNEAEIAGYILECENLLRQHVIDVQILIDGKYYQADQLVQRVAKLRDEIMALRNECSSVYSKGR

[3] = molecular target: T3, BP230 10-162 S49D (human) (UniProt Q03001)
T3 sequence (chain, Oregon Green 488 on thiol groups): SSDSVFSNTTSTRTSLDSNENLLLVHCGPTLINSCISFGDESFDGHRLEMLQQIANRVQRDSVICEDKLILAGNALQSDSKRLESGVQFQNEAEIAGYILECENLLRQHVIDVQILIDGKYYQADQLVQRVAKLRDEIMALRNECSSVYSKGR

[4] = molecular target: T4, BP230 10-162 S51D (human) (UniProt Q03001)
T4 sequence (chain, Oregon Green 488 on thiol groups): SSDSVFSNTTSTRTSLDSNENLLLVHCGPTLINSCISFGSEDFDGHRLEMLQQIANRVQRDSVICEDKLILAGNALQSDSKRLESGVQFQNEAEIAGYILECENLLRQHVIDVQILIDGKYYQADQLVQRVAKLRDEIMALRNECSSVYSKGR

BP230 19-162 (human) = molecular target: T5, BP230 19-162 (human) (UniProt Q03001)
T5 sequence (chain, Oregon Green 488 on thiol groups): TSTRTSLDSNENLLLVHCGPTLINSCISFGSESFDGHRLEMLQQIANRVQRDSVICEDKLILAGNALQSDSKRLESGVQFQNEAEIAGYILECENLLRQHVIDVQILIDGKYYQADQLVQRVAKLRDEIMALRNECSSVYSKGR

BP230 28-162 (human) = molecular target: T6, BP230 28-162 (human) (UniProt Q03001)
T6 sequence (chain, Oregon Green 488 on thiol groups): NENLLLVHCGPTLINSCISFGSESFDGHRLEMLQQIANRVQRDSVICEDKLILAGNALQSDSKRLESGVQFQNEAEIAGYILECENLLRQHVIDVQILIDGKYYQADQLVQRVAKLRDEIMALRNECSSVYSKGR

BP230 32-162 (human) = molecular target: T7, BP230 32-162 (human) (UniProt Q03001)
T7 sequence (chain, Oregon Green 488 on thiol groups): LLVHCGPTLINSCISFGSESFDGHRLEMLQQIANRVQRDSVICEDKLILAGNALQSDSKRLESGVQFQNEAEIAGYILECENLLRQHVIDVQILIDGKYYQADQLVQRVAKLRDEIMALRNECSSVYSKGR

BP230 37-162 (human) = molecular target: T8, BP230 37-162 (human) (UniProt Q03001)
T8 sequence (chain, Oregon Green 488 on thiol groups): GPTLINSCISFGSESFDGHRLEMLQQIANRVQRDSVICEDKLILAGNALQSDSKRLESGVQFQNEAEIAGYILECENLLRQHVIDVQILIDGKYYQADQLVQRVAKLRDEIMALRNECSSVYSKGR

BP230 46-162 (human) = molecular target: T9, BP230 46-162 (human) (UniProt Q03001)
T9 sequence (chain, Oregon Green 488 on thiol groups): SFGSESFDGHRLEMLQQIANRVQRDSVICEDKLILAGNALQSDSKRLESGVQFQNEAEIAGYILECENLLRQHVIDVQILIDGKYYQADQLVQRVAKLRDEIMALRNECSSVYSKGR

[5] = molecular target: T10, BP230 SR2 (56-162) (human) (UniProt Q03001)
T10 sequence (chain, Oregon Green 488 on thiol groups (fluorescence anisotropy assay)): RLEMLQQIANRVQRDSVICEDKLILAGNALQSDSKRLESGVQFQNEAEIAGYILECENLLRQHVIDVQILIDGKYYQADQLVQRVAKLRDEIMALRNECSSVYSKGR

B1: integrin β4 1436-1666 (β4-CS-FnIII-3,4) (domain or fragment, human, UniProt P16144-2 1436-1666, looked up)
chain: LPRDYSTLTSVSSHDSRLTAGVPDTPTRLVFSALGPTSLRVSWQEPRCERPLQGYSVEYQLLNGGELHRLNIPNPAQTSVVVEDLLPNHSYVFRVRAQSQEGWGREREGVITIESQVHPQSPLCPLPGSAFTLSTPSAPGPLVFTALSPDSLQLSWERPRRPNGDIVGYLVTCEMAQGGGPATAFRVDGDSPESRLTVPGLSENVPYKFKVQARTTEGFGPEREGIITIES
binding [1]: binds weakly | binding [2]: binds weakly | binding [3]: binds weakly | binding [4]: binds weakly | binding (BP230 19-162 (human)): binds weakly | binding (BP230 28-162 (human)): binds weakly | binding (BP230 32-162 (human)): binds weakly | binding (BP230 37-162 (human)): binds weakly | binding (BP230 46-162 (human)): no binding | binding [5]: no binding
